The results in this text go back to PMC10598014.

Protein sequences, listed by entry. Tags and fused reporters are not part of them.
UniProt Q16630: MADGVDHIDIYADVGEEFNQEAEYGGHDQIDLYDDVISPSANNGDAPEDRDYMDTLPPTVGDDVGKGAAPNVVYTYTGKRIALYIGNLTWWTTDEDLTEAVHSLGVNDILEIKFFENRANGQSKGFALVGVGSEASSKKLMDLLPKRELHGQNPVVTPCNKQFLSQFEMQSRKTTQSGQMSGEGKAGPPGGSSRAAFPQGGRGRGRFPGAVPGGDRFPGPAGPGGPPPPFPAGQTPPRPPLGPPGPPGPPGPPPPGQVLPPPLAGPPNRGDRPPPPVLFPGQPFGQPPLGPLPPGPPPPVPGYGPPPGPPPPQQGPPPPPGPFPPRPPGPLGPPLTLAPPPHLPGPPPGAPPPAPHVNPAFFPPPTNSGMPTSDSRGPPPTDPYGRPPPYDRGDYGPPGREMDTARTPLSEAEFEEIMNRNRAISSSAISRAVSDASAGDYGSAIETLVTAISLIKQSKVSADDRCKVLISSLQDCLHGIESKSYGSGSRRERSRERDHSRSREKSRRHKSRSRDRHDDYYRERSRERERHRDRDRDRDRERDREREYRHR
UniProt Q9BWT3: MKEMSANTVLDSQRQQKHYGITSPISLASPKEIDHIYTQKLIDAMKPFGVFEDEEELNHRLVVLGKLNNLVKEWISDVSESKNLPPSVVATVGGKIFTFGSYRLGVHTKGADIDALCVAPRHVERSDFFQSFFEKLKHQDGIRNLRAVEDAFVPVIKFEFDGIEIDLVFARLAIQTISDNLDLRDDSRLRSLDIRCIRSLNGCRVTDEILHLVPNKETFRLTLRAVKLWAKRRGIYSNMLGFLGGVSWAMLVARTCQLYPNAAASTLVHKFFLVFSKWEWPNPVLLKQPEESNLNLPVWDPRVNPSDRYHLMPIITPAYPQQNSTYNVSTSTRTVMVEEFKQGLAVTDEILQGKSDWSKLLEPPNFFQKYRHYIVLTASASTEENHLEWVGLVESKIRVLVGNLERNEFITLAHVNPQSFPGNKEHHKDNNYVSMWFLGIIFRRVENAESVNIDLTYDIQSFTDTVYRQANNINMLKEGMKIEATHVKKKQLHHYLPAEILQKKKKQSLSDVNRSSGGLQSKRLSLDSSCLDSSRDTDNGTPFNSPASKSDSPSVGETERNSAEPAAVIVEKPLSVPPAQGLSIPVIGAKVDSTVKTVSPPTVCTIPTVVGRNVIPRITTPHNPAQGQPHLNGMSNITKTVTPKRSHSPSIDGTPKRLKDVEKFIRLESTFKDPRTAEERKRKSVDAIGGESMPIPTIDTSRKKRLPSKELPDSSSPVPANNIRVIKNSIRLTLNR
UniProt P51003: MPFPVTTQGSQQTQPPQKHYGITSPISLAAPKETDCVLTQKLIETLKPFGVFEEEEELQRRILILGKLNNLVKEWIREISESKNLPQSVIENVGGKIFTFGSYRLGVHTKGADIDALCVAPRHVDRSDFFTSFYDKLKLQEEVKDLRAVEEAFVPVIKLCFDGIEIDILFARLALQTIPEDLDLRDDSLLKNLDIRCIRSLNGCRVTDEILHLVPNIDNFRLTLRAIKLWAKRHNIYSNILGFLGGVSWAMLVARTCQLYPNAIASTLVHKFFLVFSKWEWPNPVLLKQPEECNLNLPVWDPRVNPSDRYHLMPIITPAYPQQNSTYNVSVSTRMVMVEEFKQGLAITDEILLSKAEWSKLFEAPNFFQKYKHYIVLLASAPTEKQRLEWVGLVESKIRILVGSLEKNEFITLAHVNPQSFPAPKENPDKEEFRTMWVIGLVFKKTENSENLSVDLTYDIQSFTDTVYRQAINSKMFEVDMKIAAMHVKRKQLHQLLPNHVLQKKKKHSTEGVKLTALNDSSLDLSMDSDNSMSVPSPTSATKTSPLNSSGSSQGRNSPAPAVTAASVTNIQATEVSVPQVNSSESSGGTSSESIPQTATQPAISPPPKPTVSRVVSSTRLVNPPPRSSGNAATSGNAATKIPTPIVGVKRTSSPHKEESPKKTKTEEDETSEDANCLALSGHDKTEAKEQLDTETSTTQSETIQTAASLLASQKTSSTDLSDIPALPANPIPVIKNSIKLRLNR
UniProt Q6NZY4: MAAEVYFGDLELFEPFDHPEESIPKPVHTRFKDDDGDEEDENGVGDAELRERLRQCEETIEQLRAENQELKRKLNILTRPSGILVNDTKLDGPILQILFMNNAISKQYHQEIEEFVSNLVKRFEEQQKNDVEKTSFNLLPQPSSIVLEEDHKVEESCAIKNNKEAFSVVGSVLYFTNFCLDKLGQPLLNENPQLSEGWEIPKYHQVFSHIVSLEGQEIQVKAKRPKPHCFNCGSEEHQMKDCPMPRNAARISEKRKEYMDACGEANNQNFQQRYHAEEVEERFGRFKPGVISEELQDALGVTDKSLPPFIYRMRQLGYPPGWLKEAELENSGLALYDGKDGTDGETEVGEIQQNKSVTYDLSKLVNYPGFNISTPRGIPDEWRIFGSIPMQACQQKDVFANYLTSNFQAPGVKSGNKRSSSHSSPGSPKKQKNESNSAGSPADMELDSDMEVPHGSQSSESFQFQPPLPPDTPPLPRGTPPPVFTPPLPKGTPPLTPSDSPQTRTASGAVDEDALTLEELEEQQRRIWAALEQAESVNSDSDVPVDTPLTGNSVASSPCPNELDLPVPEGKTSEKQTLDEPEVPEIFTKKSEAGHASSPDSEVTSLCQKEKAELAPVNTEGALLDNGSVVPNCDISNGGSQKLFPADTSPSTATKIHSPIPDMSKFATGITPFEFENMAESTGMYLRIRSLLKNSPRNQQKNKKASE

Holding throughout (assay): affinity purification with mass spectrometry; Dignam high salt nuclear extracts of HEK-293T cells expressing Flag-HA-ZFC3H1; sequential Flag and HA immunoprecipitations; control HEK-293T sample; interactants with 2 or more peptides and FC > 2
Assay [1] has as its target Flag-HA-ZFC3H1 (human (endogenous in HEK-293T)) (UniProt O60293).
Assay [2] deals with T1, Flag-HA-ZFC3H1 (human (endogenous in HEK-293T)), O60293.
T1 chain: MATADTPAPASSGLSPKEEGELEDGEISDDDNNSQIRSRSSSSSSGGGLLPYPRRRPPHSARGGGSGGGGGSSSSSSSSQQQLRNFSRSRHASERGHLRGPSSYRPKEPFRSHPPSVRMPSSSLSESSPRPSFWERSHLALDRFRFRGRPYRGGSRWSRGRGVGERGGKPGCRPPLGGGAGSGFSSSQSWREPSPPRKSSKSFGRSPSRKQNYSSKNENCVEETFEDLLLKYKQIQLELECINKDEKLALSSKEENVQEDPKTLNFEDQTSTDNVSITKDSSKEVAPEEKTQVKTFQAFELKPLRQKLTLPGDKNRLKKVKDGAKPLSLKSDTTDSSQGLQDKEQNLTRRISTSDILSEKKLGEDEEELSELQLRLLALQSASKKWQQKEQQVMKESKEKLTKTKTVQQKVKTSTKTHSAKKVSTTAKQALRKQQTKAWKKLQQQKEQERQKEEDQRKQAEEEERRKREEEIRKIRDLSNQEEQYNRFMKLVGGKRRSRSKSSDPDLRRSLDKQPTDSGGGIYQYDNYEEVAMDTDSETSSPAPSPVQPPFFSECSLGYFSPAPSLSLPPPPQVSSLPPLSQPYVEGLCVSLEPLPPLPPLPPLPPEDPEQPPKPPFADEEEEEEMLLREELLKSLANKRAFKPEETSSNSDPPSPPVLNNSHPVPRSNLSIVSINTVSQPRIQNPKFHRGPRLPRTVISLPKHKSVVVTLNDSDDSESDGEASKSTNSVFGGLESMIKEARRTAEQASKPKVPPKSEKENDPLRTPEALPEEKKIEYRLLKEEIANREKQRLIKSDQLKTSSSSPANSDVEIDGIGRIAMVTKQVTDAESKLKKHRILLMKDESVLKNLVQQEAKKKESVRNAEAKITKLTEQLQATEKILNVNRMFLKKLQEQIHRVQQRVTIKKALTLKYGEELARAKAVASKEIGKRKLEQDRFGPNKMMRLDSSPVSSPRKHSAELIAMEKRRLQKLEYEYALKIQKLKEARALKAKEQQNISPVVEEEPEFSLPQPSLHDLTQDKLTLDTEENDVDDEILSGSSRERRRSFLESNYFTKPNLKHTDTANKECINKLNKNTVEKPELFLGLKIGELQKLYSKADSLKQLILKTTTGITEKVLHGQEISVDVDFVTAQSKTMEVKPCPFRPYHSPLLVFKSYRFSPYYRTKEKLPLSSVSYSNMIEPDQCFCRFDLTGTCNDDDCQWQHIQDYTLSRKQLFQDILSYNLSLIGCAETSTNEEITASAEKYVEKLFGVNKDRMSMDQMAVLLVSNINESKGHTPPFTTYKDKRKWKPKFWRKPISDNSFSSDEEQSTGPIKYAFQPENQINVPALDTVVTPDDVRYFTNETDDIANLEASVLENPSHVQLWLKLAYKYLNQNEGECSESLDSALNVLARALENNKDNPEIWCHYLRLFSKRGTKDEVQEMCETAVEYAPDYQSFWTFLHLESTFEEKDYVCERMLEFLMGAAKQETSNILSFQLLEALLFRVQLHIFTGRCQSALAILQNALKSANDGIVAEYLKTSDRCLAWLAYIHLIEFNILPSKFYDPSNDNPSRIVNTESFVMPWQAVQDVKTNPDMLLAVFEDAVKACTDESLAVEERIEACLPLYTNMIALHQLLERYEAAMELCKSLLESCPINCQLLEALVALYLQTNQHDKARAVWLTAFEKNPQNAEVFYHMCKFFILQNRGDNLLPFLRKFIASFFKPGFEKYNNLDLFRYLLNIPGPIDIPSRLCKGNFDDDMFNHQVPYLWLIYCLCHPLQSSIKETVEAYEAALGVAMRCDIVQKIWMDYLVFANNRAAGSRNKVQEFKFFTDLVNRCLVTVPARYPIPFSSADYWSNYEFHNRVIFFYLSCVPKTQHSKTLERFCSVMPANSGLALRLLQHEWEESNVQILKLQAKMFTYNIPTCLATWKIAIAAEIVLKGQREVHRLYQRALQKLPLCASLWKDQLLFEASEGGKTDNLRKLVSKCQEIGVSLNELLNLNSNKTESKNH
Conditions: remark: other sources report otherwise.

In assay [3] the target is Flag-HA-ZFC3H1 (human (endogenous in HEK-293T)) (UniProt O60293). The source holds these as a separate data set.

Where two headings read alike, the source gives them in different places. No constants are given. Whether binding was seen depends on the method and setting. In cells and extracts the contact can be indirect. Here binding means that the protein was enriched with, or labelled near, the bait; the list need not be complete. For some assays here: No binding means not detected with the bait. For some assays here: Where a sequence is shown, tags or fusion partners need not be part of it.

As to CPSF6 (from UniProt Q16630 1-551), the binding result in assay [1] is on record as “binds”.

As for “polyA polymerase gamma (PAPγ) (from UniProt Q9BWT3 1-736) (enzyme)”, the binding entry in assay [1] is “binds”.

Take “PAPα (from UniProt P51003 1-745) (enzyme)”: the binding result in assay [1] is listed as “no binding”.

As to ZCCHC8 (from UniProt Q6NZY4 1-707), the binding entry in assay [1] was “no binding”.

B1: PABPN1, Q86U42 1-306 (protein)
chain: MAAAAAAAAAAGAAGGRGSGPGRRRHLVPGAGGEAGEGAPGGAGDYGNGLESEELEPEELLLEPEPEPEPEEEPPRPRAPPGAPGPGPGSGAPGSQEEEEEPGLVEGDPGDGAIEDPELEAIKARVREMEEEAEKLKELQNEVEKQMNMSPPPGNAGPVIMSIEEKMEADARSIYVGNVDYGATAEELEAHFHGCGSVNRVTILCDKFSGHPKGFAYIEFSDKESVRTSLALDESLFRGRQIKVIPKRTNRPGISTTDRGFPRARYRARTTNYNSSRSRFYSGFNSRPRGRVYRGRARATSWYSPY
For B1, the binding result in assay [2] is “binds”.

B2: RBM27 (protein, UniProt Q9P2N5 1-1060)
chain: MLIEDVDALKSWLAKLLEPICDADPSALANYVVALVKKDKPEKELKAFCADQLDVFLQKETSGFVDKLFESLYTKNYLPLLEPVKPEPKPLVQEKEEIKEEVFQEPAEEERDGRKKKYPSPQKTRSESSERRTREKKREDGKWRDYDRYYERNELYREKYDWRRGRSKSRSKSRGLSRSRSRSRGRSKDRDPNRNVEHRERSKFKSERNDLESSYVPVSAPPPNSSEQYSSGAQSIPSTVTVIAPAHHSENTTESWSNYYNNHSSSNSFGRNLPPKRRCRDYDERGFCVLGDLCQFDHGNDPLVVDEVALPSMIPFPPPPPGLPPPPPPGMLMPPMPGPGPGPGPGPGPGPGPGPGPGHSMRLPVPQGHGQPPPSVVLPIPRPPITQSSLINSRDQPGTSAVPNLASVGTRLPPPLPQNLLYTVSERQPMYSREHGAAASERLQLGTPPPLLAARLVPPRNLMGSSIGYHTSVSSPTPLVPDTYEPDGYNPEAPSITSSGRSQYRQFFSRTQTQRPNLIGLTSGDMDVNPRAANIVIQTEPPVPVSINSNITRVVLEPDSRKRAMSGLEGPLTKKPWLGKQGNNNQNKPGFLRKNQYTNTKLEVKKIPQELNNITKLNEHFSKFGTIVNIQVAFKGDPEAALIQYLTNEEARKAISSTEAVLNNRFIRVLWHRENNEQPTLQSSAQLLLQQQQTLSHLSQQHHHLPQHLHQQQVLVAQSAPSTVHGGIQKMMSKPQTSGAYVLNKVPVKHRLGHAGGNQSDASHLLNQSGGAGEDCQIFSTPGHPKMIYSSSNLKTPSKLCSGSKSHDVQEVLKKKQEAMKLQQDMRKKRQEVLEKQIECQKMLISKLEKNKNMKPEERANIMKTLKELGEKISQLKDELKTSSAVSTPSKVKTKTEAQKELLDTELDLHKRLSSGEDTTELRKKLSQLQVEAARLGILPVGRGKTMSSQGRGRGRGRGGRGRGSLNHMVVDHRPKALTVGGFIEEEKEDLLQHFSTANQGPKFKDRRLQISWHKPKVPSISTETEEEEVKEEETETSDLFLPDDDDEDEDEYESRSWRR
For B2, the binding entry in assay [3] is “binds”.

B3: ZC3H14 (protein, UniProt Q6PJT7 1-736)
chain: MEIGTEISRKIRSAIKGKLQELGAYVDEELPDYIMVMVANKKSQDQMTEDLSLFLGNNTIRFTVWLHGVLDKLRSVTTEPSSLKSSDTNIFDSNVPSNKSNFSRGDERRHEAAVPPLAIPSARPEKRDSRVSTSSQESKTTNVRQTYDDGAATRLMSTVKPLREPAPSEDVIDIKPEPDDLIDEDLNFVQENPLSQKKPTVTLTYGSSRPSIEIYRPPASRNADSGVHLNRLQFQQQQNSIHAAKQLDMQSSWVYETGRLCEPEVLNSLEETYSPFFRNNSEKMSMEDENFRKRKLPVVSSVVKVKKFNHDGEEEEEDDDYGSRTGSISSSVSVPAKPERRPSLPPSKQANKNLILKAISEAQESVTKTTNYSTVPQKQTLPVAPRTRTSQEELLAEVVQGQSRTPRISPPIKEEETKGDSVEKNQGTQQRQLLSRLQIDPVMAETLQMSQDYYDMESMVHADTRSFILKKPKLSEEVVVAPNQESGMKTADSLRVLSGHLMQTRDLVQPDKPASPKFIVTLDGVPSPPGYMSDQEEDMCFEGMKPVNQTAASNKGLRGLLHPQQLHLLSRQLEDPNGSFSNAEMSELSVAQKPEKLLERCKYWPACKNGDECAYHHPISPCKAFPNCKFAEKCLFVHPNCKYDAKCTKPDCPFTHVSRRIPVLSPKPAVAPPAPPSSSQLCRYFPACKKMECPFYHPKHCRFNTQCTRPDCTFYHPTINVPPRHALKWIRPQTSE
Regarding B3, the binding entry in assay [3] is recorded as “binds”.

B4: ZC3H3 (protein, UniProt Q8IXZ2 1-948)
chain: MEEKEILRRQIRLLQGLIDDYKTLHGNAPAPGTPAASGWQPPTYHSGRAFSARYPRPSRRGYSSHHGPSWRKKYSLVNRPPGPSDPPADHAVRPLHGARGGQPPVPQQHVLERQVQLSQGQNVVIKVKPPSKSGSASASGAQRGSLEEFEETPWSDQRPREGEGEPPRGQLQPSRPTRARGTCSVEDPLLVCQKEPGKPRMVKSVGSVGDSPREPRRTVSESVIAVKASFPSSALPPRTGVALGRKLGSHSVASCAPQLLGDRRVDAGHTDQPVPSGSVGGPARPASGPRQAREASLVVTCRTNKFRKNNYKWVAASSKSPRVARRALSPRVAAENVCKASAGMANKVEKPQLIADPEPKPRKPATSSKPGSAPSKYKWKASSPSASSSSSFRWQSEASSKDHASQLSPVLSRSPSGDRPAVGHSGLKPLSGETPLSAYKVKSRTKIIRRRSSTSLPGDKKSGTSPAATAKSHLSLRRRQALRGKSSPVLKKTPNKGLVQVTTHRLCRLPPSRAHLPTKEASSLHAVRTAPTSKVIKTRYRIVKKTPASPLSAPPFPLSLPSWRARRLSLSRSLVLNRLRPVASGGGKAQPGSPWWRSKGYRCIGGVLYKVSANKLSKTSGQPSDAGSRPLLRTGRLDPAGSCSRSLASRAVQRSLAIIRQARQRREKRKEYCMYYNRFGRCNRGERCPYIHDPEKVAVCTRFVRGTCKKTDGTCPFSHHVSKEKMPVCSYFLKGICSNSNCPYSHVYVSRKAEVCSDFLKGYCPLGAKCKKKHTLLCPDFARRGACPRGAQCQLLHRTQKRHSRRAATSPAPGPSDATARSRVSASHGPRKPSASQRPTRQTPSSAALTAAAVAAPPHCPGGSASPSSSKASSSSSSSSSPPASLDHEAPSLQEAALAAACSNRLCKLPSFISLQSSPSPGAQPRVRAPRAPLTKDSGKPLHIKPRL
With B4, in assay [3], the binding entry was “binds”.
